# According to patent publication US20090036416A1, “Novel CXCR4 Antagonist and Use Thereof” (Kyoto University, priority 2005, published 2009):
# Amino acid sequences for entries named in this document (tags omitted).
# UniProt P61073, whole entry: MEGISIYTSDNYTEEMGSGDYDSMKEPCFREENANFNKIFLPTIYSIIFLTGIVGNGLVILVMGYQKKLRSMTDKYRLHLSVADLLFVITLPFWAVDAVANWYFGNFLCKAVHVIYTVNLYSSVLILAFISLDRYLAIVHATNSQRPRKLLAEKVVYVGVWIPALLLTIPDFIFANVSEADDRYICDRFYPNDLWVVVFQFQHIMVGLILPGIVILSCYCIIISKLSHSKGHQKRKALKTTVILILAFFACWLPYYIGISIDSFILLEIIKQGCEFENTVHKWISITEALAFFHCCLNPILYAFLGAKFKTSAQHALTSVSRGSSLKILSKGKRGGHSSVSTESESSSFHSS
# At least one structure is not confirmed: it was looked up by name or label, or the drawing left a doubt.
# Biological target: CXCR4 (Homo sapiens, UniProt P61073)
# Experiment: CXCR4 antagonistic activity: inhibition of Ca2+ movement induced by SDF-1a in CXCR4 transfected CHO cells (Fura-2)
# Format: cell-based
# Conditions: comment in the text on Tables 1 to 3
# Method: Various aromatic compounds each having a dipicolylamine-zinc complex were prepared, and their CXCR4 antagonistic effects were examined using the following method.
# A CXCR4 transfected Chinese hamster ovary(CHO) cells (3×10^4 cell/100 μL/well) were plated in each well of a flat-bottomed micro-titer tray. The samples were incubated in a CO2 incubator at 37° C., and the cells were loaded in Ham F-12 buffer(80 μL/well) for an hour at 37° C., together with 5 μM Fura-2AM (Dojindo, Kumatomo, Japan), 2.5 mM Probenecid (Sigma) and 20 mM HEPES(pH7.4).
# Thereafter, the cells were washed twice with Hank's balanced salt solution (100 μL×2), and placed in a spectrofluorimeter (96 well Fluorescence Drug Screening System, Hamamatsu Photonics K.K. Japan). 30 seconds after the measurement started, the cells were incubated in Hank's balanced salt solution with plural test compounds of different concentrations. After 3 minutes, recombinant SDF-1a (PreproTech, 30 nM/[…]/well) was added.
# Changes of the CXCR4 transfect CHO cell system loaded with Fura2-A[Ca^2+], were recorded in real time with a modification method of Fura-2. The CXCR4 antagonistic effect was measured based on the inhibition of Ca^2+ movement induced by the stimulation of SDF-1a via CXCR4 (IC50).
smiles,measurement,value
c1ccc(CN(Cc2ccccn2)Cc2c3ccccc3cc3ccccc23)nc1 [Example Compound 8],CXCR4 antagonistic activity (in words),"sufficient, though not significantly high, CXCR4 antagonistic activity"
